Experiment in all cases: co-IP; MCF12A cells 20 hours post-transfection, lysed in 50 mM Tris-HCl pH 7.5, 150 mM NaCl, 1% Triton-X100, 0.27 M sucrose; anti-HA or anti-Flag affinity gel, 2 hours at 4 °C; immunoblot; in some samples active PAK1(K141A) co-expressed
A general note: In western blotting, separated proteins are transferred to a membrane and probed.

The target in assay [1] is HACE1(S385E), phospho-mimetic mutant (UniProt Q8IYU2).
Assay [2] deals with T1, Ser-385-phosphorylated form of HACE1, Q8IYU2.
T1 chain: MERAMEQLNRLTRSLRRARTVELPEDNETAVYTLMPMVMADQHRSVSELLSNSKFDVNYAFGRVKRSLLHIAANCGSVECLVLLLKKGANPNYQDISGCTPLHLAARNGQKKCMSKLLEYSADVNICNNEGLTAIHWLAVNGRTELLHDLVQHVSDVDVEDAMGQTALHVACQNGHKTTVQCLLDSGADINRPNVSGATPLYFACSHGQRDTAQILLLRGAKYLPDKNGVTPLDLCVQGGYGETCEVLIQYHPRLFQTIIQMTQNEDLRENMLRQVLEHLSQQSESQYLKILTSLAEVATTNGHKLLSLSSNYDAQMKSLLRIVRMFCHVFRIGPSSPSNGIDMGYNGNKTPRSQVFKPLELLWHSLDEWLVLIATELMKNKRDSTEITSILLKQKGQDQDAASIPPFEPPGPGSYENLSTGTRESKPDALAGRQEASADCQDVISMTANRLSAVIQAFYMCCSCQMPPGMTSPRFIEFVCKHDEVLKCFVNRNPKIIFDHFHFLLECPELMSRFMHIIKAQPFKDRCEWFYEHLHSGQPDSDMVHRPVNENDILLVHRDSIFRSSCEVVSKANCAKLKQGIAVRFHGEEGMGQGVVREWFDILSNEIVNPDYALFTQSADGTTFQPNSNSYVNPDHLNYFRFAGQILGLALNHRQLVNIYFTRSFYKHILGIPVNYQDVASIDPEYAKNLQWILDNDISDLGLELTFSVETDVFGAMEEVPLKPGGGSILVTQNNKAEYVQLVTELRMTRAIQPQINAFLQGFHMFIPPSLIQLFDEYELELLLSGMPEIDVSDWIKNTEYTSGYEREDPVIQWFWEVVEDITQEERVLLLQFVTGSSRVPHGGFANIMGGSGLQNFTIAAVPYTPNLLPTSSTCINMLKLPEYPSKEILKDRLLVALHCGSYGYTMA
As to conditions: remark: other sources report otherwise.

The target in assay [3] is T2, HACE1(WT), full length (FL), HA- or myc-tagged (UniProt Q8IYU2).
T2 sequence: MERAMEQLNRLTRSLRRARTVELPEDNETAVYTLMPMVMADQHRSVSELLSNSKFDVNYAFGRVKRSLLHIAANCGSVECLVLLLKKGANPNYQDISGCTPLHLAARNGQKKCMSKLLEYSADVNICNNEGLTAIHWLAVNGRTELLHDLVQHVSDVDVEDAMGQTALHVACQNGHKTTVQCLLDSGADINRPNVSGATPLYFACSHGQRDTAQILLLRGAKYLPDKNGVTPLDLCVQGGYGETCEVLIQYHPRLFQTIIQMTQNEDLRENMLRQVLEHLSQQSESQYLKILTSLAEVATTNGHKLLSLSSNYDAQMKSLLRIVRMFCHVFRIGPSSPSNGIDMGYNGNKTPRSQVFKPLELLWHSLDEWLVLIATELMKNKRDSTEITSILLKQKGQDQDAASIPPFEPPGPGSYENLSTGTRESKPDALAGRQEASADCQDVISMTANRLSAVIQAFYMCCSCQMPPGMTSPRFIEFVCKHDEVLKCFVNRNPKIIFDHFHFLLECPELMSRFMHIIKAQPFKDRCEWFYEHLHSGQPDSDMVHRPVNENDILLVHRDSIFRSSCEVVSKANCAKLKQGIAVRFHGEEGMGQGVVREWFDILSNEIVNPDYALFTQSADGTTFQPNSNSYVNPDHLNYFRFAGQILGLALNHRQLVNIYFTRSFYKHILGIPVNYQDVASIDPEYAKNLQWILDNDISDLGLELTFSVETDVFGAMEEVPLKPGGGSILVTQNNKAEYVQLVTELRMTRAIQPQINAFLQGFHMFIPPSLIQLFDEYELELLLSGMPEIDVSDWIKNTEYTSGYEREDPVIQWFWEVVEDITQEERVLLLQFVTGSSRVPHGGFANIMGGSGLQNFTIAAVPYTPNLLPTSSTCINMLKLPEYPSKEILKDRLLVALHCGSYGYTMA

Results are given in words; binding and its absence hold for the method and conditions named. In cells and extracts the contact can be indirect. Some results given as binding are weak or reduced against the parent protein; the word gives no strength. For part of these data: Tags and fused reporters may be left off the sequences shown.

B1: HACE1(S385E), phospho-mimetic mutant (enzyme, UniProt Q8IYU2 1-909)
chain: MERAMEQLNRLTRSLRRARTVELPEDNETAVYTLMPMVMADQHRSVSELLSNSKFDVNYAFGRVKRSLLHIAANCGSVECLVLLLKKGANPNYQDISGCTPLHLAARNGQKKCMSKLLEYSADVNICNNEGLTAIHWLAVNGRTELLHDLVQHVSDVDVEDAMGQTALHVACQNGHKTTVQCLLDSGADINRPNVSGATPLYFACSHGQRDTAQILLLRGAKYLPDKNGVTPLDLCVQGGYGETCEVLIQYHPRLFQTIIQMTQNEDLRENMLRQVLEHLSQQSESQYLKILTSLAEVATTNGHKLLSLSSNYDAQMKSLLRIVRMFCHVFRIGPSSPSNGIDMGYNGNKTPRSQVFKPLELLWHSLDEWLVLIATELMKNKRDETEITSILLKQKGQDQDAASIPPFEPPGPGSYENLSTGTRESKPDALAGRQEASADCQDVISMTANRLSAVIQAFYMCCSCQMPPGMTSPRFIEFVCKHDEVLKCFVNRNPKIIFDHFHFLLECPELMSRFMHIIKAQPFKDRCEWFYEHLHSGQPDSDMVHRPVNENDILLVHRDSIFRSSCEVVSKANCAKLKQGIAVRFHGEEGMGQGVVREWFDILSNEIVNPDYALFTQSADGTTFQPNSNSYVNPDHLNYFRFAGQILGLALNHRQLVNIYFTRSFYKHILGIPVNYQDVASIDPEYAKNLQWILDNDISDLGLELTFSVETDVFGAMEEVPLKPGGGSILVTQNNKAEYVQLVTELRMTRAIQPQINAFLQGFHMFIPPSLIQLFDEYELELLLSGMPEIDVSDWIKNTEYTSGYEREDPVIQWFWEVVEDITQEERVLLLQFVTGSSRVPHGGFANIMGGSGLQNFTIAAVPYTPNLLPTSSTCINMLKLPEYPSKEILKDRLLVALHCGSYGYTMA
Turning to B1, the binding result in assay [1] is given as “binds”.

B2: Ser-385-phosphorylated form of HACE1, Q8IYU2 1-909 (enzyme)
chain: MERAMEQLNRLTRSLRRARTVELPEDNETAVYTLMPMVMADQHRSVSELLSNSKFDVNYAFGRVKRSLLHIAANCGSVECLVLLLKKGANPNYQDISGCTPLHLAARNGQKKCMSKLLEYSADVNICNNEGLTAIHWLAVNGRTELLHDLVQHVSDVDVEDAMGQTALHVACQNGHKTTVQCLLDSGADINRPNVSGATPLYFACSHGQRDTAQILLLRGAKYLPDKNGVTPLDLCVQGGYGETCEVLIQYHPRLFQTIIQMTQNEDLRENMLRQVLEHLSQQSESQYLKILTSLAEVATTNGHKLLSLSSNYDAQMKSLLRIVRMFCHVFRIGPSSPSNGIDMGYNGNKTPRSQVFKPLELLWHSLDEWLVLIATELMKNKRDSTEITSILLKQKGQDQDAASIPPFEPPGPGSYENLSTGTRESKPDALAGRQEASADCQDVISMTANRLSAVIQAFYMCCSCQMPPGMTSPRFIEFVCKHDEVLKCFVNRNPKIIFDHFHFLLECPELMSRFMHIIKAQPFKDRCEWFYEHLHSGQPDSDMVHRPVNENDILLVHRDSIFRSSCEVVSKANCAKLKQGIAVRFHGEEGMGQGVVREWFDILSNEIVNPDYALFTQSADGTTFQPNSNSYVNPDHLNYFRFAGQILGLALNHRQLVNIYFTRSFYKHILGIPVNYQDVASIDPEYAKNLQWILDNDISDLGLELTFSVETDVFGAMEEVPLKPGGGSILVTQNNKAEYVQLVTELRMTRAIQPQINAFLQGFHMFIPPSLIQLFDEYELELLLSGMPEIDVSDWIKNTEYTSGYEREDPVIQWFWEVVEDITQEERVLLLQFVTGSSRVPHGGFANIMGGSGLQNFTIAAVPYTPNLLPTSSTCINMLKLPEYPSKEILKDRLLVALHCGSYGYTMA
modifications: here or on the partner: phosphoserine at 385; phosphoserine at 385
Turning to B2, the binding result in assay [2] is “binds”.

B3: HACE1 HECT domain alone (domain or fragment, UniProt Q8IYU2 574-909)
chain: NCAKLKQGIAVRFHGEEGMGQGVVREWFDILSNEIVNPDYALFTQSADGTTFQPNSNSYVNPDHLNYFRFAGQILGLALNHRQLVNIYFTRSFYKHILGIPVNYQDVASIDPEYAKNLQWILDNDISDLGLELTFSVETDVFGAMEEVPLKPGGGSILVTQNNKAEYVQLVTELRMTRAIQPQINAFLQGFHMFIPPSLIQLFDEYELELLLSGMPEIDVSDWIKNTEYTSGYEREDPVIQWFWEVVEDITQEERVLLLQFVTGSSRVPHGGFANIMGGSGLQNFTIAAVPYTPNLLPTSSTCINMLKLPEYPSKEILKDRLLVALHCGSYGYTMA
B3: the binding entry in assay [3] is reported as “binds weakly”.

For the origin of these results see PMC5780496.
